± gives the standard deviation of the averaged measurements. Some of the results follow.
Compound: Nc1nc2c(ncn2[C@@H]2O[C@H](COP(=O)(O)OP(=O)(O)OP(=O)(O)O)[C@@H](O)[C@H]2O)c(=O)[nH]1 [guanosine triphosphate]
Assay: NP40-soluble protein abundance relative to vehicle (solubility fold change) (ratio); higher = more soluble protein in presence of GTP
How it was run: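 Jurkat crude lysate (Dounce-homogenised) was treated with eight concentrations from 0.1 to 10 mM for 10 min at room temperature, then 3 min at 37 °C. It was solubilised with 0.8% NP40 and benzonase (60 min, 4 °C) and ultracentrifuged, and the supernatant was TMT-labelled for LC-MS/MS. Intensities were vsn-normalised, and the value is the fold change against the NP40-processed vehicle per replicate, from three independent experiments.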

Sequences of proteins named here, by UniProt entry; tags and fusion partners are left off. A change or cut given only in a name is not applied to a line headed by its entry.
UniProt Q7Z4W1: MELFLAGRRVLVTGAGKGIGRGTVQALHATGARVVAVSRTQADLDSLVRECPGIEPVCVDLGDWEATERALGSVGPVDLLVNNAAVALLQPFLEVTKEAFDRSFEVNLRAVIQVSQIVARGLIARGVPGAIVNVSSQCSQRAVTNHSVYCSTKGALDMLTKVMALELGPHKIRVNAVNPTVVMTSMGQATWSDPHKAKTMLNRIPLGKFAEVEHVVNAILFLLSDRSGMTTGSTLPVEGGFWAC
UniProt Q15022: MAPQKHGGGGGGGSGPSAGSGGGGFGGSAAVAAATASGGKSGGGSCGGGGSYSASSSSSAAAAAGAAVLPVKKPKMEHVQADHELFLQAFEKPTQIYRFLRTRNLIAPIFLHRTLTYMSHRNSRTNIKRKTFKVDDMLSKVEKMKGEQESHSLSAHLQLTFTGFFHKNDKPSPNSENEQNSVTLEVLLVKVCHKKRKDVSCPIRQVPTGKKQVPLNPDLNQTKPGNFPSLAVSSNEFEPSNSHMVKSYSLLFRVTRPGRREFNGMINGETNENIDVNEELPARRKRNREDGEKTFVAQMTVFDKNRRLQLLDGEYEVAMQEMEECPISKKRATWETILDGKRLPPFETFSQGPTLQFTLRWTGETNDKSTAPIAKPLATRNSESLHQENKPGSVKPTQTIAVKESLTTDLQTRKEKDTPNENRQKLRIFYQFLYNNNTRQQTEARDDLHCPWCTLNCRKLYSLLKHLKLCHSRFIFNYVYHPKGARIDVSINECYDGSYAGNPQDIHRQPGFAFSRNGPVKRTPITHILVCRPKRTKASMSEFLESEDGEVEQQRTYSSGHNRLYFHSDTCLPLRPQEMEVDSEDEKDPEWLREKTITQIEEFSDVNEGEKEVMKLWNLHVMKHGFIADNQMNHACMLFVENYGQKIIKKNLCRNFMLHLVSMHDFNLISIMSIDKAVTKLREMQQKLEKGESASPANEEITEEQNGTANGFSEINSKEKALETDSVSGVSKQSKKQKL
UniProt Q86W74: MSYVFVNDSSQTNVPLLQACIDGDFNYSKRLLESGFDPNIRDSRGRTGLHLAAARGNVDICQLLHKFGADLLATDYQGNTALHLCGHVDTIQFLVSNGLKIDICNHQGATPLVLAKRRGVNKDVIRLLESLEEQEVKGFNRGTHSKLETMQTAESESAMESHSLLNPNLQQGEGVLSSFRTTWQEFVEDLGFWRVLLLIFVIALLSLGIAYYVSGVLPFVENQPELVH
UniProt Q15004: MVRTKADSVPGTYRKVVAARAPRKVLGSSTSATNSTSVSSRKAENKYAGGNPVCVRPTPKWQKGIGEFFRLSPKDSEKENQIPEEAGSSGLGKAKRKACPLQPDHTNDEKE
UniProt O95858: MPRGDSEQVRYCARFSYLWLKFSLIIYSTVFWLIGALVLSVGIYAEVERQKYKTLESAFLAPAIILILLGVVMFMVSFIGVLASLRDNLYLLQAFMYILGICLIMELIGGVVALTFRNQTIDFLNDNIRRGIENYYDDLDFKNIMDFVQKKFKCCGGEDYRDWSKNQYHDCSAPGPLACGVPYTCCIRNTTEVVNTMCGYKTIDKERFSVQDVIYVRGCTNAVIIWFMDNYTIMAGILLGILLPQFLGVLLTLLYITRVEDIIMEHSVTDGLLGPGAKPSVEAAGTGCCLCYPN
UniProt Q5VYK3, whole entry, looked up: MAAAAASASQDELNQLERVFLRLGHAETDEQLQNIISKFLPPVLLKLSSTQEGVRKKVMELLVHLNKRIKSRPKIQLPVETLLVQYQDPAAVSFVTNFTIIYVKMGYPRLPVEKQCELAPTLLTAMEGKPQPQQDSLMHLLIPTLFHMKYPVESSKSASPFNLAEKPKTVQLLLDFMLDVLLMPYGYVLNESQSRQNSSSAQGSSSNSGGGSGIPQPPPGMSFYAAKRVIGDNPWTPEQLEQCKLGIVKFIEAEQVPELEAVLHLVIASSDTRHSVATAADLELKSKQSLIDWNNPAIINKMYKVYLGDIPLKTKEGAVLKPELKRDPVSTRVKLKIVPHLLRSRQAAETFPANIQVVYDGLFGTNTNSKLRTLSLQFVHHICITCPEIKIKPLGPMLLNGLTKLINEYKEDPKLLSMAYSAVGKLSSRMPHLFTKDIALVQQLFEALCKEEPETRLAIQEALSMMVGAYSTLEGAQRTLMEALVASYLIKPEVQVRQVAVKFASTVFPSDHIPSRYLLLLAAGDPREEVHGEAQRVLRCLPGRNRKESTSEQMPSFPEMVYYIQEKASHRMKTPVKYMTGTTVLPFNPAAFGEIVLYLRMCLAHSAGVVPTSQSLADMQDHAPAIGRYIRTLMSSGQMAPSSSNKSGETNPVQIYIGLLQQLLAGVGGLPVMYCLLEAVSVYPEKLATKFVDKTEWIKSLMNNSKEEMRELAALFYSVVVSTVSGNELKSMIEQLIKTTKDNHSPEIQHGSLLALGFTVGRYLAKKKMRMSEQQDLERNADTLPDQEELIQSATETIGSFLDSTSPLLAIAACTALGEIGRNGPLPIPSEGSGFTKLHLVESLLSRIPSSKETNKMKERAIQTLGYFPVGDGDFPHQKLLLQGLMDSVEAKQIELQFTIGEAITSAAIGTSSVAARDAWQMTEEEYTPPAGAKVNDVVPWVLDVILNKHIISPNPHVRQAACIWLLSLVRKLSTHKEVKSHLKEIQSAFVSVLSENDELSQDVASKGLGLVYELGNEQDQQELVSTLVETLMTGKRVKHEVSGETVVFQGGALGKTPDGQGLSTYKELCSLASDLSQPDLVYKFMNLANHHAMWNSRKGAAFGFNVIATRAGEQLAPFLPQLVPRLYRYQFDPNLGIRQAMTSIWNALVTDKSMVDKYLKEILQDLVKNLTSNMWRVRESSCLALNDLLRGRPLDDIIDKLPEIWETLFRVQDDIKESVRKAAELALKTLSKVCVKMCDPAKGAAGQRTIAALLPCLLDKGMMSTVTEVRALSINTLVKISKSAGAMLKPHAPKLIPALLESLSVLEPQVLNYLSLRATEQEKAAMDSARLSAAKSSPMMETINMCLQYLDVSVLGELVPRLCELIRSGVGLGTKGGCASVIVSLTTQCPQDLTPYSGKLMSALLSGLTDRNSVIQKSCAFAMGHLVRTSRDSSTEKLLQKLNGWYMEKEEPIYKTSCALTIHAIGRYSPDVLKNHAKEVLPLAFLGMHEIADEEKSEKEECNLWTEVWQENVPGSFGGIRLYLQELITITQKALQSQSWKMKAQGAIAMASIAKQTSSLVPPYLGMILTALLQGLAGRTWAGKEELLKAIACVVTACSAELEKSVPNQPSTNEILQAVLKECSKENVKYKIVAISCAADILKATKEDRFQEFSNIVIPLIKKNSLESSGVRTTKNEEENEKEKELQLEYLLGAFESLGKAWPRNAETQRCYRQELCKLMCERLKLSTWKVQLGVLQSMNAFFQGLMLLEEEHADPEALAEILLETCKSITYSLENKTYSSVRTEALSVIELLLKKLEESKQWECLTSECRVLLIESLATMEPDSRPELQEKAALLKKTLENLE
UniProt Q9UKF6: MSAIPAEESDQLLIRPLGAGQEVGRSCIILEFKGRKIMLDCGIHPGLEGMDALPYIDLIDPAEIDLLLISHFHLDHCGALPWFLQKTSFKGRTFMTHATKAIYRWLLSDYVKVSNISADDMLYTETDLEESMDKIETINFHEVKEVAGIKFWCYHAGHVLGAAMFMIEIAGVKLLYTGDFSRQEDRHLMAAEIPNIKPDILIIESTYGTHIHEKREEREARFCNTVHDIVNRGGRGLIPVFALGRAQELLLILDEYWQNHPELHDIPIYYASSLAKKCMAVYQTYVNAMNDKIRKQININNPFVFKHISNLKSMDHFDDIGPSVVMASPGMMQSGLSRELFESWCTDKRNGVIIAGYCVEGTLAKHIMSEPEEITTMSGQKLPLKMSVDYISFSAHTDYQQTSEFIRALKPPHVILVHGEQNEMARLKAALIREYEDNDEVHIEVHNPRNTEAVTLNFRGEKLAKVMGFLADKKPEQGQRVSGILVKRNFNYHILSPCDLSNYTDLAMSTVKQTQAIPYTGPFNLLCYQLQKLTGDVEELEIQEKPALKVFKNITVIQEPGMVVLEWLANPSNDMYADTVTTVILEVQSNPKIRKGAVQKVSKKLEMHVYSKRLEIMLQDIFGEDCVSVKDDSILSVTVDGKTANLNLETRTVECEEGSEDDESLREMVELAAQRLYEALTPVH
UniProt Q9UKM7: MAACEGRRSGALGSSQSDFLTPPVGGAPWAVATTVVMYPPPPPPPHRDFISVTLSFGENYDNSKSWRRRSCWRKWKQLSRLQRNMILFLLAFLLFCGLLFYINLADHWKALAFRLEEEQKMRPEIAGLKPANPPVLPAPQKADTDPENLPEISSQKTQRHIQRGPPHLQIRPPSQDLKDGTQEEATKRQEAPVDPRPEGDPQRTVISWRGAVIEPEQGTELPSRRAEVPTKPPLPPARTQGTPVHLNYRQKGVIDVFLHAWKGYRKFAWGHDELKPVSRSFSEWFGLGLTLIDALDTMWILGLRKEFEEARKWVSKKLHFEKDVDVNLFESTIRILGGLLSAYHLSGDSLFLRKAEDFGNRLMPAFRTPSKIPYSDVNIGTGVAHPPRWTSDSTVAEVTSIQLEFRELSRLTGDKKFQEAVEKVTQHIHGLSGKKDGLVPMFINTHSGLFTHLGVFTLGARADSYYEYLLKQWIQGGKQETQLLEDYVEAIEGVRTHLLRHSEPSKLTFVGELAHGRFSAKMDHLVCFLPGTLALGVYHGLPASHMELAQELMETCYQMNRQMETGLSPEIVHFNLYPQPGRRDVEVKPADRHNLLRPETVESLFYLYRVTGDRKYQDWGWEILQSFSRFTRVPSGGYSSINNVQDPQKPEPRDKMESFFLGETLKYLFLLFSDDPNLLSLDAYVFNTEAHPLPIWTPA
UniProt Q6UW68: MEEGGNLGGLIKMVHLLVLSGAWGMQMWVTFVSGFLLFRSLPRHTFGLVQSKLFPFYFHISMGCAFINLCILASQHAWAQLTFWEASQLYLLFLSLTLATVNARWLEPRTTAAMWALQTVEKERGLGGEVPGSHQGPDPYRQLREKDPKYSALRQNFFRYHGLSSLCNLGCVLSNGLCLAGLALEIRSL
UniProt Q9H0E3: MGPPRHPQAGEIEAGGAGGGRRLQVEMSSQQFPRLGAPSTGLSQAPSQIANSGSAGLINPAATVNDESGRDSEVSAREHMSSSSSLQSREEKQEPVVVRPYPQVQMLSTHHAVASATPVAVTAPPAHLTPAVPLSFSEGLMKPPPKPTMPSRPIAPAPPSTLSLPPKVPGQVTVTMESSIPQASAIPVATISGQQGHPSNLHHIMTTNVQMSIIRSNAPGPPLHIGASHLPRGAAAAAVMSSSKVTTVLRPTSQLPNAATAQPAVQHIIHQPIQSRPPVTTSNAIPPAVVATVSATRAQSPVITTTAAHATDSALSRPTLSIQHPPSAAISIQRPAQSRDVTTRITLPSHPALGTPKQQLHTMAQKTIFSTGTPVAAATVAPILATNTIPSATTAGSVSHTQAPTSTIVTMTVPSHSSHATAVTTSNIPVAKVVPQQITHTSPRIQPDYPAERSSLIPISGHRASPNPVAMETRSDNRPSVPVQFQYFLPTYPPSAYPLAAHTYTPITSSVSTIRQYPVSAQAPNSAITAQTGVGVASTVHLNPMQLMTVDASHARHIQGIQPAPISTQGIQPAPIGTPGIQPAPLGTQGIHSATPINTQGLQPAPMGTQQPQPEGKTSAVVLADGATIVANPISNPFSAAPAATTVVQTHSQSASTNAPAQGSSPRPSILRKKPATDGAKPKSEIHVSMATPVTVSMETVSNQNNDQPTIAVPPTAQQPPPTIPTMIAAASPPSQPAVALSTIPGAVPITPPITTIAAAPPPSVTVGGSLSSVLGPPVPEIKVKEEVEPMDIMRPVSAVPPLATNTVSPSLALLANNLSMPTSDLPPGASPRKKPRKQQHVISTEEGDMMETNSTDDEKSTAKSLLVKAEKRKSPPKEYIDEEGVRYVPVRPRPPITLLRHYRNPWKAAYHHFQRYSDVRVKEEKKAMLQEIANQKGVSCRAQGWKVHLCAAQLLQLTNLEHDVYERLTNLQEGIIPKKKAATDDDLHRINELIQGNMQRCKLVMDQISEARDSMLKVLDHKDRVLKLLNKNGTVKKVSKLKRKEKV

| Target | NP40-soluble protein abundance (concentration: 0.1mM) | NP40-soluble protein abundance (concentration: 0.5mM) | NP40-soluble protein abundance (concentration: 1mM) | NP40-soluble protein abundance (concentration: 2mM) | NP40-soluble protein abundance (concentration: 4mM) | NP40-soluble protein abundance (concentration: 6mM) | NP40-soluble protein abundance (concentration: 8mM) | NP40-soluble protein abundance (concentration: 10mM) |
| --- | --- | --- | --- | --- | --- | --- | --- | --- |
| K7EIU8 and related entries (UniProt Q13485) | 0.968 ± 0.025 | 0.969 ± 0.019 | 0.904 ± 0.048 | 0.919 ± 0.053 | 0.879 ± 0.03 | 0.901 ± 0.012 | 0.866 ± 0.074 | 0.856 ± 0.065 |
| J3KS22 and related entries (UniProt Q7Z4W1) | 1.04 ± 0.054 | 0.977 ± 0.029 | 0.952 ± 0.06 | 0.949 ± 0.062 | 0.946 ± 0.04 | 0.947 ± 0.041 | 0.93 ± 0.051 | 0.878 ± 0.041 |
| H7BZB3 and related entries (UniProt P27708) | 1.06 ± 0.078 | 1.12 ± 0.14 | 1.1 ± 0.17 | 1.19 ± 0.25 | 1.2 ± 0.25 | 1.18 ± 0.27 | 1.12 ± 0.2 | 1.08 ± 0.2 |
| J3QQW9 and related entries (UniProt Q15022) | 1.04 ± 0.046 | 1.02 ± 0.011 | 1.07 ± 0.063 | 1.09 ± 0.04 | 1.2 ± 0.11 | 1.15 ± 0.087 | 1.29 ± 0.2 | 1.28 ± 0.12 |
| J3KP26 and related entries (UniProt Q86W74) | 1.01 ± 0.15 | 0.934 ± 0.054 | 0.965 ± 0.092 | 0.962 ± 0.042 | 0.96 ± 0.034 | 0.951 ± 0.065 | 0.89 ± 0.038 | 0.94551 ± 0.00081 |
| H0YKX3 and related entries (UniProt Q15004) | 1.03 ± 0.086 | 1.04 ± 0.062 | 1.07 ± 0.081 | 1.04 ± 0.12 | 0.957 ± 0.13 | 0.982 ± 0.15 | 1.19 ± 0.031 | 1.09 ± 0.039 |
| H7C285 and related entries (UniProt O95858) | 0.991 ± 0.12 | 0.993 ± 0.027 | 0.948 ± 0.047 | 0.962 ± 0.11 | 0.972 ± 0.1 | 0.958 ± 0.1 | 0.972 ± 0.14 | 0.9589 ± 0.00067 |
| H0YEN5 and related entries (UniProt P15880) | 0.979 ± 0.063 | 1.01 ± 0.1 | 0.965 ± 0.14 | 0.936 ± 0.19 | 0.848 ± 0.21 | 0.836 ± 0.21 | 0.738 ± 0.17 | 0.774 ± 0.2 |
| J3KN16 and related entries (UniProt Q5VYK3+J3KN16) | 1.01 ± 0.046 | 1.02 ± 0.031 | 0.974 ± 0.05 | 0.962 ± 0.038 | 0.953 ± 0.042 | 0.944 ± 0.026 | 0.92 ± 0.03 | 0.925 ± 0.029 |
| G5E9W3 and related entries (UniProt Q9UKF6) | 1.01 ± 0.029 | 1.03 ± 0.033 | 0.999 ± 0.042 | 1.03 ± 0.012 | 1.05 ± 0.065 | 1.08 ± 0.062 | 1.03 ± 0.023 | 1.03 ± 0.019 |
| H0YG20 and related entries (UniProt Q9UKM7) | 0.975 ± 0.055 | 0.954 ± 0.05 | 0.823 ± 0.037 | 0.93 ± 0.087 | 0.972 ± 0.071 | 0.876 ± 0.058 | 0.874 ± 0.035 | 0.958 ± 0.048 |
| K7ELQ9 and related entries (UniProt Q6UW68) | 1.05 ± 0.099 | 1 ± 0.21 | 0.936 ± 0.07 | 0.896 ± 0.16 | 0.9 ± 0.11 | 0.888 ± 0.078 | 0.904 ± 0.19 | 0.876 ± 0.13 |
| H7BXF5 and related entries (UniProt Q9H0E3) | 1.03 ± 0.037 | 0.971 ± 0.052 | 1.08 ± 0.074 | 1.08 ± 0.065 | 1.12 ± 0.12 | 1.14 ± 0.15 | 1.16 ± 0.12 | 1.2 ± 0.17 |

Only NP40-soluble protein abundance (concentration: 4mM) and NP40-soluble protein abundance (concentration: 0.1mM), for some of the entries so far:

| Target | NP40-soluble protein abundance (concentration: 4mM) | NP40-soluble protein abundance (concentration: 0.1mM) |
| --- | --- | --- |
| J3KS22 and related entries (UniProt Q7Z4W1) | 0.946 ± 0.04 | 1.04 ± 0.054 |
| H7BZB3 and related entries (UniProt P27708) | 1.2 ± 0.25 | 1.06 ± 0.078 |
